Experimental data taken from patent publication US20140038203A1, “METHODS FOR DETECTING OR PREDICTING KIDNEY DISEASE” (MUSC FOUNDATION FOR RESEARCH DEVELOPMENT, priority 2012, published 2014).

B1: Peptidase inhibitor 16 (protein, UniProt Q6UXB8 28-463, looked up)
Peptidase inhibitor 16: LTDEEKRLMVELHNLYRAQVSPTASDMLHMRWDEELAAFAKAYARQCVWGHNKERGRRGENLFAITDEGMDVPLAMEEWHHEREHYNLSAATCSPGQMCGHYTQVVWAKTERIGCGSHFCEKLQGVEETNIELLVCNYEPPGNVKGKRPYQEGTPCSQCPSGYHCKNSLCEPIGSPEDAQDLPYLVTEAPSFRATEASDSRKMGTPSSLATGIPAFLVTEVSGSLATKALPAVETQAPTSLATKDPPSMATEAPPCVTTEVPSILAAHSLPSLDEEPVTFPKSTHVPIPKSADKVTDKTKVPSRSPENSLDPKMSLTGARELLPHAQEEAEAEAELPPSSEVLASVFPAQDKPGELQATLDHTGHTSSKSLPNFPNTSATANATGGRALALQSSLPGAEGPDKPSVVSGLNSGPGHVWGPLLGLLLLPPLVLAGIF
B2: Lymphatic vessel endothelial hyaluronic acid receptor 1 (protein, UniProt Q9Y5Y7 20-322, looked up)
Lymphatic vessel endothelial …: LVQGSLRAEELSIQVSCRIMGITLVSKKANQQLNFTEAKEACRLLGLSLAGKDQVETALKASFETCSYGWVGDGFVVISRISPNPKCGKNGVGVLIWKVPVSRQFAAYCYNSSDTWTNSCIPEIITTKDPIFNTQTATQTTEFIVSDSTYSVASPYSTIPAPTTTPPAPASTSIPRRKKLICVTEVFMETSTMSTETEPFVENKAAFKNEAAGFGGVPTALLVLALLFFGAAAGLGFCYVKRYVKAFPFTNKNQQKEMIETKVVKEEKANDSNPNEESKKTDKNPEESKSPSKTTVRCLEAEV
B3: Complement decay-accelerating factor (protein, UniProt P08174 35-353, looked up)
Complement decay-accelerating …: DCGLPPDVPNAQPALEGRTSFPEDTVITYKCEESFVKIPGEKDSVICLKGSQWSDIEEFCNRSCEVPTRLNSASLKQPYITQNYFPVGTVVEYECRPGYRREPSLSPKLTCLQNLKWSTAVEFCKKKSCPNPGEIRNGQIDVPGGILFGATISFSCNTGYKLFGSTSSFCLISGSSVQWSDPLPECREIYCPAPPQIDNGIIQGERDHYGYRQSVTYACNKGFTMIGEHSIYCTVNNDEGEWSGPPPECRGKSLTSKVPPTVQKPTTVNVPTTEVSPTSQKTTTKTTTPNAQATRSTPVSRTTKHFHETTPNKGSGTTS
B4: 6-phosphogluconolactonase (protein, UniProt O95336 2-258, looked up)
6-phosphogluconolactonase: AAPAPGLISVFSSSQELGAALAQLVAQRAACCLAGARARFALGLSGGSLVSMLARELPAAVAPAGPASLARWTLGFCDERLVPFDHAESTYGLYRTHLLSRLPIPESQVITINPELPVEEAAEDYAKKLRQAFQGDSIPVFDLLILGVGPDGHTCSLFPDHPLLQEREKIVAPISDSPKPPPQRVTLTLPVLNAARTVIFVATGEGKAAVLKRILEDQEENPLPAALVQPHTGKLCWFLDEAAARLLTVPFEKHSTL
B5: Acyl-CoA-binding protein (protein, UniProt P07108 2-87, looked up)
Acyl-CoA-binding protein: SQAEFEKAAEEVRHLKTKPSDEEMLFIYGHYKQATVGDINTERPGMLDFTGKAKWDAWNELKGTSKEDAMKAYINKVEELKKKYGI
B6: Lithostathine-1-alpha (protein, UniProt P05451 23-166, looked up)
Lithostathine-1-alpha: QEAQTELPQARISCPEGTNAYRSYCYYFNEDRETWVDADLYCQNMNSGNLVSVLTQAEGAFVASLIKESGTDDFNVWIGLHDPKKNRRWHWSSGSLVSYKSWGIGAPSSVNPGYCVSLTSSTGFQKWKDVPCEDKFSFVCKFKN
B7: Syndecan-1 (protein, UniProt P18827 23-310, looked up)
Syndecan-1: QIVATNLPPEDQDGSGDDSDNFSGSGAGALQDITLSQQTPSTWKDTQLLTAIPTSPEPTGLEATAASTSTLPAGEGPKEGEAVVLPEVEPGLTAREQEATPRPRETTQLPTTHLASTTTATTAQEPATSHPHRDMQPGHHETSTPAGPSQADLHTPHTEDGGPSATERAAEDGASSQLPAAEGSGEQDFTFETSGENTAVVAVEPDRRNQSPVDQGATGASQGLLDRKEVLGGVIAGGLVGLIFAVCLVGFMLYRMKKKDEGSYSLEEPKQANGGAYQKPTKQEEFYA
B8: Nidogen-1 (protein, UniProt P14543 29-1247, looked up)
Nidogen-1: LSRQELFPFGPGQGDLELEDGDDFVSPALELSGALRFYDRSDIDAVYVTTNGIIATSEPPAKESHPGLFPPTFGAVAPFLADLDTTDGLGKVYYREDLSPSITQRAAECVHRGFPEISFQPSSAVVVTWESVAPYQGPSRDPDQKGKRNTFQAVLASSDSSSYAIFLYPEDGLQFHTTFSKKENNQVPAVVAFSQGSVGFLWKSNGAYNIFANDRESVENLAKSSNSGQQGVWVFEIGSPATTNGVVPADVILGTEDGAEYDDEDEDYDLATTRLGLEDVGTTPFSYKALRRGGADTYSVPSVLSPRRAATERPLGPPTERTRSFQLAVETFHQQHPQVIDVDEVEETGVVFSYNTDSRQTCANNRHQCSVHAECRDYATGFCCSCVAGYTGNGRQCVAEGSPQRVNGKVKGRIFVGSSQVPIVFENTDLHSYVVMNHGRSYTAISTIPETVGYSLLPLAPVGGIIGWMFAVEQDGFKNGFSITGGEFTRQAEVTFVGHPGNLVIKQRFSGIDEHGHLTIDTELEGRVPQIPFGSSVHIEPYTELYHYSTSVITSSSTREYTVTEPERDGASPSRIYTYQWRQTITFQECVHDDSRPALPSTQQLSVDSVFVLYNQEEKILRYALSNSIGPVREGSPDALQNPCYIGTHGCDTNAACRPGPRTQFTCECSIGFRGDGRTCYDIDECSEQPSVCGSHTICNNHPGTFRCECVEGYQFSDEGTCVAVVDQRPINYCETGLHNCDIPQRAQCIYTGGSSYTCSCLPGFSGDGQACQDVDECQPSRCHPDAFCYNTPGSFTCQCKPGYQGDGFRCVPGEVEKTRCQHEREHILGAAGATDPQRPIPPGLFVPECDAHGHYAPTQCHGSTGYCWCVDRDGREVEGTRTRPGMTPPCLSTVAPPIHQGPAVPTAVIPLPPGTHLLFAQTGKIERLPLEGNTMRKTEAKAFLHVPAKVIIGLAFDCVDKMVYWTDITEPSIGRASLHGGEPTTIIRQDLGSPEGIAVDHLGRNIFWTDSNLDRIEVAKLDGTQRRVLFETDLVNPRGIVTDSVRGNLYWTDWNRDNPKIETSYMDGTNRRILVQDDLGLPNGLTFDAFSSQLCWVDAGTNRAECLNPSQPSRRKALEGLQYPFAVTSYGKNLYFTDWKMNSVVALDLAISKETDAFQPHKQTRLYGITTALSQCPQGHNYCSVNNGGCTHLCLATPGSRTCRCPDNTLGVDCIEQK
B9: Tripeptidyl-peptidase 1 (protein, UniProt O14773 196-563, looked up)
Tripeptidyl-peptidase 1: LHLGVTPSVIRKRYNLTSQDVGSGTSNNSQACAQFLEQYFHDSDLAQFMRLFGGNFAHQASVARVVGQQGRGRAGIEASLDVQYLMSAGANISTWVYSSPGRHEGQEPFLQWLMLLSNESALPHVHTVSYGDDEDSLSSAYIQRVNTELMKAAARGLTLLFASGDSGAGCWSVSGRHQFRPTFPASSPYVTTVGGTSFQEPFLITNEIVDYISGGGFSNVFPRPSYQEEAVTKFLSSSPHLPPSSYFNASGRAYPDVAALSDGYWVVSNRVPIPWVSGTSASTPVFGGILSLINEHRILSGRPPLGFLNPRLYQQHGAGLFDVTRGCHESCLDEEVEGQGFCSGPGWDPVTGWGTPNFPALLKTLLNP
B10: Fibulin-5 (protein, UniProt Q9UBX5 24-448, looked up)
Fibulin-5: QAQCTNGFDLDRQSGQCLDIDECRTIPEACRGDMMCVNQNGGYLCIPRTNPVYRGPYSNPYSTPYSGPYPAAAPPLSAPNYPTISRPLICRFGYQMDESNQCVDVDECATDSHQCNPTQICINTEGGYTCSCTDGYWLLEGQCLDIDECRYGYCQQLCANVPGSYSCTCNPGFTLNEDGRSCQDVNECATENPCVQTCVNTYGSFICRCDPGYELEEDGVHCSDMDECSFSEFLCQHECVNQPGTYFCSCPPGYILLDDNRSCQDINECEHRNHTCNLQQTCYNLQGGFKCIDPIRCEEPYLRISDNRCMCPAENPGCRDQPFTILYRDMDVVSGRSVPADIFQMQATTRYPGAYYIFQIKSGNEGREFYMRQTGPISATLVMTRPIKGPREIQLDLEMITVNTVINFRGSSVIRLRIYVSQYPF
B11: EGF-containing fibulin-like extracellular matrix protein 1 (protein, UniProt Q12805 18-493, looked up)
EGF-containing fibulin-like …: QDTEETITYTQCTDGYEWDPVRQQCKDIDECDIVPDACKGGMKCVNHYGGYLCLPKTAQIIVNNEQPQQETQPAEGTSGATTGVVAASSMATSGVLPGGGFVASAAAVAGPEMQTGRNNFVIRRNPADPQRIPSNPSHRIQCAAGYEQSEHNVCQDIDECTAGTHNCRADQVCINLRGSFACQCPPGYQKRGEQCVDIDECTIPPYCHQRCVNTPGSFYCQCSPGFQLAANNYTCVDINECDASNQCAQQCYNILGSFICQCNQGYELSSDRLNCEDIDECRTSSYLCQYQCVNEPGKFSCMCPQGYQVVRSRTCQDINECETTNECREDEMCWNYHGGFRCYPRNPCQDPYILTPENRCVCPVSNAMCRELPQSIVYKYMSIRSDRSVPSDIFQIQATTIYANTINTFRIKSGNENGEFYLRQTSPVSAMLVLVKSLSGPREHIVDLEMLTVSSIGTFRTSSVLRLTIIVGPFSF
B12: Kininogen-1 (protein, UniProt P01042 19-644, looked up)
Kininogen-1: QESQSEEIDCNDKDLFKAVDAALKKYNSQNQSNNQFVLYRITEATKTVGSDTFYSFKYEIKEGDCPVQSGKTWQDCEYKDAAKAATGECTATVGKRSSTKFSVATQTCQITPAEGPVVTAQYDCLGCVHPISTQSPDLEPILRHGIQYFNNNTQHSSLFMLNEVKRAQRQVVAGLNFRITYSIVQTNCSKENFLFLTPDCKSLWNGDTGECTDNAYIDIQLRIASFSQNCDIYPGKDFVQPPTKICVGCPRDIPTNSPELEETLTHTITKLNAENNATFYFKIDNVKKARVQVVAGKKYFIDFVARETTCSKESNEELTESCETKKLGQSLDCNAEVYVVPWEKKIYPTVNCQPLGMISLMKRPPGFSPFRSSRIGEIKEETTVSPPHTSMAPAQDEERDSGKEQGHTRRHDWGHEKQRKHNLGHGHKHERDQGHGHQRGHGLGHGHEQQHGLGHGHKFKLDDDLEHQGGHVLDHGHKHKHGHGHGKHKNKGKKNGKHNGWKTEHLASSSEDSTTPSAQTQEKTEGPTPIPSLAKPGVTVTFSDFQDSDLIATMMPPISPAPIQSDDDWIPDIQIDPNGLSFNPISDFPDTTSPKCPGRPWKSVSEINPTTQMKESYYFDLTDGLS
B13: Cystatin-B (protein, UniProt P04080 1-98, looked up)
Cystatin-B: MMCGAPSATQPATAETQHIADQVRSQLEEKENKKFPVFKAVSFKSQVVAGTNYFIKVHVGDEDFVHLRVFQSLPHENKPLTLSNYQTNKAKHDELTYF

Test: RRT study: LC-MS/MS urinary proteomics, AKI after cardiac surgery, RRT vs No RRT
Parameters: species or system human
Conditions: patients who did vs did not require RRT/dialysis; for Up or Down: direction of urinary abundance; for Mean Fold Change: read with the Up or Down column

Molecule	Up or Down	Mean Fold Change
B1	Up	2.388
B2	Up	1.137
B3	Up	1.188
B4	Up	2.382
B5	Up	17.89
B6	Up	1.1406
B7	Up	2.852
B8	Up	1.307
B9	Up	1.239
B10	Up	1.011
B11	Up	1.932
B12	Up	1.18
B13	Up	58.14
